Values joined by “and” are separate entries in the source; they are usually repeats but may differ in a detail not shown here. Identical values can stand only once.
Target: T1, Alpha-2C adrenergic receptor (Rattus norvegicus, UniProt P22086)
T1 sequence (P22086 whole entry): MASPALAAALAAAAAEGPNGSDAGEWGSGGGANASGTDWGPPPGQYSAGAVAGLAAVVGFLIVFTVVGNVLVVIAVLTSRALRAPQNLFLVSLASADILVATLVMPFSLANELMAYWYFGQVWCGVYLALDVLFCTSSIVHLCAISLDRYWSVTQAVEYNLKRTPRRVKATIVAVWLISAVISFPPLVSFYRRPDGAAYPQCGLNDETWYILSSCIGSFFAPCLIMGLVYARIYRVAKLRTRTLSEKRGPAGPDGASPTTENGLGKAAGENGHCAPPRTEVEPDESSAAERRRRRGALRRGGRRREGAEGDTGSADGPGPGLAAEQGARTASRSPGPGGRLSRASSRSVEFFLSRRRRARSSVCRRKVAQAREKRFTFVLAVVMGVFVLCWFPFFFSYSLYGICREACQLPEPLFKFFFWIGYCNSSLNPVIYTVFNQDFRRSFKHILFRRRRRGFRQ

## CC(C)NC[C@H](O)COc1cccc2ccccc12 [Propanolol,(+/-)]
  Ki: 1300 nM and 2790 nM

Reference: BindingDB's records for PubMed 2885406 (University of California, 1987)
